The list shows a part of the results. Most entries show no effect beyond the scatter of the controls.
These targets were tested with CN[C@@H]1C[C@H]2O[C@@](C)([C@@H]1OC)n1c3ccccc3c3c4c(c5c6ccccc6n2c5c31)C(=O)NC4 [staurosporine] (assay: log2 fold change of tryptic peptide abundance, ligand vs vehicle (limited proteolysis) (log2 ratio); higher = more trypsin-susceptible (destabilized)). Settings: ligand concentration: 20 uM; sample: K562 cleared lysate; digestion: 4 min, 22 C (HT-PELSA RT4min, Orbitrap Astral).

The chains behind the UniProt entries cited, without tags or fusion partners. Where a name states a change or a piece, a line headed by the entry shows the natural chain unless it says otherwise.
UniProt O60828: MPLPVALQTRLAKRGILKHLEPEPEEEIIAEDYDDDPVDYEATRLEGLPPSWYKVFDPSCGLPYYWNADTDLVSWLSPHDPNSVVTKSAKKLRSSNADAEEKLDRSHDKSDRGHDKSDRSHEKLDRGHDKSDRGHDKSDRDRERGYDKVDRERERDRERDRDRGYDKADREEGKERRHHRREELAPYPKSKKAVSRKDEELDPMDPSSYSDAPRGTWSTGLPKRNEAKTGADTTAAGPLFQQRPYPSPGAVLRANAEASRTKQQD
UniProt O75351, whole entry: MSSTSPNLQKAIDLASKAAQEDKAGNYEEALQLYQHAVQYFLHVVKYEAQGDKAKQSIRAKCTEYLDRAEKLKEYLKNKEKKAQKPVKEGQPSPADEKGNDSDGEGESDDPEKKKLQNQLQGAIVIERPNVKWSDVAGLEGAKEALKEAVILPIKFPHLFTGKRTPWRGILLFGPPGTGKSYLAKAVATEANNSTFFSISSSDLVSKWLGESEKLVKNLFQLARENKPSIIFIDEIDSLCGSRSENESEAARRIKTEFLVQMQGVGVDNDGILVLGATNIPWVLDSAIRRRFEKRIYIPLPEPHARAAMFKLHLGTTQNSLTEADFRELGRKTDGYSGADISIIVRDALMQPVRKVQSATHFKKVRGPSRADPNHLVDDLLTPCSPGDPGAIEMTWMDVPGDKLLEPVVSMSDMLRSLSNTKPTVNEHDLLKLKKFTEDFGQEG
UniProt O75155: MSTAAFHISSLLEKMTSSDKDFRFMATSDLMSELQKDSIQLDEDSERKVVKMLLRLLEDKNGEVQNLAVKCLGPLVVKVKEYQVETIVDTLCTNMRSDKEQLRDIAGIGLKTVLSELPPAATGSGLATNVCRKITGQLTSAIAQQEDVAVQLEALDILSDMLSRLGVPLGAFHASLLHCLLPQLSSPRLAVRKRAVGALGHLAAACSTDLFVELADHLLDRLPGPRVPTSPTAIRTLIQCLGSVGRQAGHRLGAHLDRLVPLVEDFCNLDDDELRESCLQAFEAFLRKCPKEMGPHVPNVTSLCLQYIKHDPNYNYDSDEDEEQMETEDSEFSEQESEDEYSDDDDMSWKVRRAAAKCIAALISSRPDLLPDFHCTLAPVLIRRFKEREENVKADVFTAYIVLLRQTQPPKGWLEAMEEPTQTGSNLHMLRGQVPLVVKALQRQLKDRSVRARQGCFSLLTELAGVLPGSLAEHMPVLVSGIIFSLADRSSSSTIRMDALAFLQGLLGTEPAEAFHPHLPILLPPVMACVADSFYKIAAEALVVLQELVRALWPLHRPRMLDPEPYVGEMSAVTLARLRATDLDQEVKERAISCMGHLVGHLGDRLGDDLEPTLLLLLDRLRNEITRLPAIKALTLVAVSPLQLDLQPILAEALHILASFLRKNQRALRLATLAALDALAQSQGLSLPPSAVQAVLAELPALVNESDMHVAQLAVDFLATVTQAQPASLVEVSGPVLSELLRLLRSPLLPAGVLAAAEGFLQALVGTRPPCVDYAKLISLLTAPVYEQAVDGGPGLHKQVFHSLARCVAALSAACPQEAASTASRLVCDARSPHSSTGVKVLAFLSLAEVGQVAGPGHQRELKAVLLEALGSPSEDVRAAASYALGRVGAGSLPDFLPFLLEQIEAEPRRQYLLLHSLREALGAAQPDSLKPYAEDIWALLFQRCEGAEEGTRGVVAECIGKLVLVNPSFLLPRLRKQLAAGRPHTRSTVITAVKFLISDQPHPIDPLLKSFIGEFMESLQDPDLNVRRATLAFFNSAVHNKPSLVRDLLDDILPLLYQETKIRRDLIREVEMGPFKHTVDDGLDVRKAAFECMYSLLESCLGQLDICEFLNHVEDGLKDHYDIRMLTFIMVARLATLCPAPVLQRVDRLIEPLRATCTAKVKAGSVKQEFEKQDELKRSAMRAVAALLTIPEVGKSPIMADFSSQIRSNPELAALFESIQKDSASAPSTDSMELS
UniProt O75323: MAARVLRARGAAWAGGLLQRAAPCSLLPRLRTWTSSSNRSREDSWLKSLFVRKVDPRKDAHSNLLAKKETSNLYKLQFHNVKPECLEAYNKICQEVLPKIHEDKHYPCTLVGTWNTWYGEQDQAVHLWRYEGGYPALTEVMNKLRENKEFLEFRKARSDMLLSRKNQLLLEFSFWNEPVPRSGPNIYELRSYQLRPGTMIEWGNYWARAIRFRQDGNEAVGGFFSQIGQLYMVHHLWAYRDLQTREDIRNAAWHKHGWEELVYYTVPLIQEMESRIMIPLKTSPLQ
UniProt O43432, whole entry: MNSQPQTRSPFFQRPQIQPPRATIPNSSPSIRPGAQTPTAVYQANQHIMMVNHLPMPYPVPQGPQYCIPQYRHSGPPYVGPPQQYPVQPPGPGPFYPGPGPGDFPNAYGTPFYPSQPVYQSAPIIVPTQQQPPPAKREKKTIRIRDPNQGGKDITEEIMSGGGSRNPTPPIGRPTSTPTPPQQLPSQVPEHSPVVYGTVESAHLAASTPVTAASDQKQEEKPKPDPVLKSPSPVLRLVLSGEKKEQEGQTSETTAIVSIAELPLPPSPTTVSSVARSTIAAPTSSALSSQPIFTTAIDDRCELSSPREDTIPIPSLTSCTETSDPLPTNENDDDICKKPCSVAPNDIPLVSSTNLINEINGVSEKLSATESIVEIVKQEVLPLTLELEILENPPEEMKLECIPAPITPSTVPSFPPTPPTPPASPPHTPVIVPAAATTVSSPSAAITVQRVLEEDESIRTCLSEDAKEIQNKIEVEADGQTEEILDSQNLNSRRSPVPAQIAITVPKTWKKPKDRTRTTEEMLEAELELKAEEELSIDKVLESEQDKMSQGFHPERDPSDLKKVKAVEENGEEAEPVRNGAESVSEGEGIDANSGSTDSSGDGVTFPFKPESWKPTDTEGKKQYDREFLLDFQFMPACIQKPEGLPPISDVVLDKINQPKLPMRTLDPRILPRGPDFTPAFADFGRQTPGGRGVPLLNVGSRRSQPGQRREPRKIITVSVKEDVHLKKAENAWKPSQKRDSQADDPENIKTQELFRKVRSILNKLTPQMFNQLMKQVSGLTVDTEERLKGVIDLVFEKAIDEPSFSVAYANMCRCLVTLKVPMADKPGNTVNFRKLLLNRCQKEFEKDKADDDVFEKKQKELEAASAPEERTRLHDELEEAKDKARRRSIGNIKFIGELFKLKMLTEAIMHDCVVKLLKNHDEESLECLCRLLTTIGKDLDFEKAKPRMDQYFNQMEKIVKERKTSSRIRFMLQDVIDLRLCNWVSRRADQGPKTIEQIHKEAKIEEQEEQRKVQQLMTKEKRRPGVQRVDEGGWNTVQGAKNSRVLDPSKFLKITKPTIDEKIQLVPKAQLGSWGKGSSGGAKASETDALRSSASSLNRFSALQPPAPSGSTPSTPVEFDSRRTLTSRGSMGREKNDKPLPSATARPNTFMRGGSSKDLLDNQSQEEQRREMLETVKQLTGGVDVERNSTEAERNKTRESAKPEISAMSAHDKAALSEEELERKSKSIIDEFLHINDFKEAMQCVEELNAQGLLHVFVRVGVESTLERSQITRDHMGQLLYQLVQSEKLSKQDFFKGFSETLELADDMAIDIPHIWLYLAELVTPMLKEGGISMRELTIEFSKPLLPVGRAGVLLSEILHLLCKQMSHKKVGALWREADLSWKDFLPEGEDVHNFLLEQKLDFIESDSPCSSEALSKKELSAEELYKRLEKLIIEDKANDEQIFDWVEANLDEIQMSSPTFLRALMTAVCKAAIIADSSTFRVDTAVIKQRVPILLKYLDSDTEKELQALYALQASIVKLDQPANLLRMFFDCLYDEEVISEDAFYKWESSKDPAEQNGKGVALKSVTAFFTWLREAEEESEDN
UniProt O60336: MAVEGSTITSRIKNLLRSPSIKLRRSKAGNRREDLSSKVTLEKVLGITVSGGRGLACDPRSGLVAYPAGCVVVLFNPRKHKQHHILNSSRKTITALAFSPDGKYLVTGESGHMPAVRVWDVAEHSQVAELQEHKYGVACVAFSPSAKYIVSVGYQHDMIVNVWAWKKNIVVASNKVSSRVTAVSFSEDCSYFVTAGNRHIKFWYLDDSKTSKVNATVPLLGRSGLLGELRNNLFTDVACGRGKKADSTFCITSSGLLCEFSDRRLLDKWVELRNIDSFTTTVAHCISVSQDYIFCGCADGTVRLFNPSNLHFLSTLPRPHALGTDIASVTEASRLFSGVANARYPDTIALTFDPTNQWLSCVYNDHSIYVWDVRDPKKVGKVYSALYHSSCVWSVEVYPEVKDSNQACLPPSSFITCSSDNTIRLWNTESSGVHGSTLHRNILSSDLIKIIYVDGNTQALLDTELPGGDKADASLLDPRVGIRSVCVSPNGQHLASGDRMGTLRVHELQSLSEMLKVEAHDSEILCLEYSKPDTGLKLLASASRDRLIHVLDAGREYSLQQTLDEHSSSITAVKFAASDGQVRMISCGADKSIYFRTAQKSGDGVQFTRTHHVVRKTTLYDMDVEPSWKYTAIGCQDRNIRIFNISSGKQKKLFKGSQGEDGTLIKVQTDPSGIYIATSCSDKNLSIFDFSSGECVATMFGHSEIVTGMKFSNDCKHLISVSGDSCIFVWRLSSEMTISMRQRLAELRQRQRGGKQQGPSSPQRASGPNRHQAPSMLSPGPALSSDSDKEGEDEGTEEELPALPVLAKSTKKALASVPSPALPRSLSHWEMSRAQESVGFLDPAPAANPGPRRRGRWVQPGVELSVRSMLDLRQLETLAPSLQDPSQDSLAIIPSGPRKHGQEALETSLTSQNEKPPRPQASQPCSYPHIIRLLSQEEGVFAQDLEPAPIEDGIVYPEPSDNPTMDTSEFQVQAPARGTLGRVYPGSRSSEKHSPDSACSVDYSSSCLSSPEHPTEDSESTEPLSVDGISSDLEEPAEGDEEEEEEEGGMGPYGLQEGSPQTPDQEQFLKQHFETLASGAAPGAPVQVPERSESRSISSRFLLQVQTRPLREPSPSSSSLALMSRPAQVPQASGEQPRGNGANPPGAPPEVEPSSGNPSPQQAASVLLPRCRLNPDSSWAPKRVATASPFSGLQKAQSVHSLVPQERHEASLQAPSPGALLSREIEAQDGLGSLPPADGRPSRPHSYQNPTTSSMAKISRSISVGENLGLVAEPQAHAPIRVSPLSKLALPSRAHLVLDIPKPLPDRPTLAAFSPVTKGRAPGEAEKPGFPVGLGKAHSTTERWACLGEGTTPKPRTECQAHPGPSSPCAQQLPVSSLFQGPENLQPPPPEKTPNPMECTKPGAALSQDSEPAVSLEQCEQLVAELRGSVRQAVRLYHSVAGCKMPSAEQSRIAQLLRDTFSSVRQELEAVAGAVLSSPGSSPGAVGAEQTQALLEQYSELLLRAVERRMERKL
UniProt O60524: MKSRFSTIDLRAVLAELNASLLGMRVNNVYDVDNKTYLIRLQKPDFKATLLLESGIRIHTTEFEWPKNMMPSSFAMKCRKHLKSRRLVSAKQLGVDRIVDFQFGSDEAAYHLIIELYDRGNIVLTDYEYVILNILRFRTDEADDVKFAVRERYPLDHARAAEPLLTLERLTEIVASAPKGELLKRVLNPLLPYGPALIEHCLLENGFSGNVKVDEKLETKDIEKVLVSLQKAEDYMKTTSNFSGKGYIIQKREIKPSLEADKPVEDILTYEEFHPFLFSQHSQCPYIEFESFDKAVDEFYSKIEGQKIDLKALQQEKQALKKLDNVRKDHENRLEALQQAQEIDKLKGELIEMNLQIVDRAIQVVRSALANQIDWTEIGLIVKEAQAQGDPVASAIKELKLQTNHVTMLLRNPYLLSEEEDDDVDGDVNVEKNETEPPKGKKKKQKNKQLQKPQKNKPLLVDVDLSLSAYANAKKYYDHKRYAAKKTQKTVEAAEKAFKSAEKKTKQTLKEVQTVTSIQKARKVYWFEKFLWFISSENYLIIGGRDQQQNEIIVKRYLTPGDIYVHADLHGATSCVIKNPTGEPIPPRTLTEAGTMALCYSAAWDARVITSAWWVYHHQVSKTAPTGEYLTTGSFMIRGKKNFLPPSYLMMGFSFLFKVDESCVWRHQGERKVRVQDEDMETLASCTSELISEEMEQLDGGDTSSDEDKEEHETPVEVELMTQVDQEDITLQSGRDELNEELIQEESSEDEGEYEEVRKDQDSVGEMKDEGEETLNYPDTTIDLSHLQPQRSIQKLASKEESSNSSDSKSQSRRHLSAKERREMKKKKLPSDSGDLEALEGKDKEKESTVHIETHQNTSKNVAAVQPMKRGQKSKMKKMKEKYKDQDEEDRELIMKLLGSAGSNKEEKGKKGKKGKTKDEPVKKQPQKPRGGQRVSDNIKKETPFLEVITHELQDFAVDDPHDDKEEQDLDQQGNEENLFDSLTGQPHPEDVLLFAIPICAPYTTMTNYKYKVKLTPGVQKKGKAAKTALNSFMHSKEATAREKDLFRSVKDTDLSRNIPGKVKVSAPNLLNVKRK
UniProt O75348, whole entry: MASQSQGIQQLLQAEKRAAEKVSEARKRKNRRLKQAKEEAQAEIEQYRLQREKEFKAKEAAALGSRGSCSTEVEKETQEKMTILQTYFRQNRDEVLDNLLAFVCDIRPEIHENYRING

Row | Target | log2 fold change
1 | PQBP1 (peptide sequence: SSNADAEEKLDR, peptide start residue: 94) (UniProt O60828) | -0.0882
2 | VPS4B (peptide sequence: SENESEAARR, peptide start residue: 244) (UniProt O75351) | 0.972
3 | CAND2 (peptide sequence: MTSSDKDFR, peptide start residue: 15) (UniProt O75155) | 0.472
4 | UniProt O75323 (peptide sequence: KDAHSNLLAK, peptide start residue: 58) | 0.632
5 | ZNF207 (peptide sequence: ILIQHQK, peptide start residue: 25) (UniProt O43670) | 0.421
6 | UniProt O43432 (peptide sequence: MSQGFHPERDPSDLKK, peptide start residue: 548) | 0.805
7 | KALRN (peptide sequence: GSSYNPPLPPLK, peptide start residue: 2279) (UniProt O60229) | 0.371
8 | KIF21B (peptide sequence: VVVNQDKTSQQISALR, peptide start residue: 374) (UniProt O75037) | 0.964
9 | UniProt O60336 (peptide sequence: KALASVPSPALPR, peptide start residue: 812) | 0.795
10 | UniProt O60524 (peptide sequence: NVAAVQPMKR, peptide start residue: 861) | 0.286
11 | ATP6V1G1 (peptide sequence: AAEKVSEAR, peptide start residue: 18) (UniProt O75348) | 0.352

Reprinted from above for reference:
Row | Target | log2 fold change
4 | UniProt O75323 (peptide sequence: KDAHSNLLAK, peptide start residue: 58) | 0.632
5 | ZNF207 (peptide sequence: ILIQHQK, peptide start residue: 25) (UniProt O43670) | 0.421

Source: the supplement of paper PMC12819154, “High-throughput peptide-centric local stability assay extends protein–ligand identification to membrane proteins, tissues and bacteria” (Nature Structural & Molecular Biology, 2025)
